The text below walks through data of the supplement of paper PMC7125110.

± gives the standard error. Many of these values have a large error.

Sequences and labels used below:
B1: glmS ribozyme (parent)
chain: AUAAAAGCGCCAGAACUACAGAAAUGUAGUUGACGAGGAGGAGGUUUAUCGAAUUUUCGGCGGAUGCCUCCAAA

The first data set covers variants of B1. Kind of data set: kcat; higher = faster cleavage; RNA array. The note with it: with glucosamine-6-phosphate. An outline of the steps:
(§1)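 Glucosamine-6-phosphate (40 μM to 10 mM) in HEPES/KCl/Mg(OAc)2 buffer was flowed over sequenced MiSeq chips, and tiles were imaged over ~14 h. Barcoded ribozyme variants there had been transcribed in situ by E. coli RNA polymerase and were tracked through a hybridised Cy3 probe at 37 °C. One- or two-exponential decay fits to per-tile medians, normalised to baseline and to non-cleaving reference variants, gave kobs. kcat and KM came from weighted Michaelis–Menten fits across concentrations.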
The term kcat denotes the maximal rate divided by the concentration of active sites. On to AUAAAAGCGCCCGAACUACAGAAAUGUAGUUGACGAGGAGGAGGUUAAUCGAAUUUUUGGCGGAUGUAUCCAAA [A12C U47A C58U C67U C68A], for which the kcat is 2.23e-05 ± 1.6e-05 s⁻¹.

As to AUAAAAGCGCCGGUACUACAGAAAUGUAGUUUACGAGGAGGAGGUUUAUCGAAUUUUCGACGGAUUCCUCCAAA [A12G A14U G32U G60A G66U], the kcat was less than 1e-05 s⁻¹. Turning to AUAAAAGCGACAGAACUACAGAAAUGUAGUUGACGAGGAGGAGGUUAAUCGAAUUUUCGGCGGAUGCCUACAAA [C10A U47A C70A], the kcat came out at 3.45e-05 ± 2.8e-05 s⁻¹.

As to AUAAAAGCGUCAGAACUACAGAAAUGUAGUUGACGAGGAGGAGGUUUAUCGAAUUUUCGGCGGAUGCCUUCAAA [C10U C70U], the kcat was 2.53e-05 ± 1.3e-06 s⁻¹. On the same count and under the same terms, next, AUAAAAGCGCCUGAACUACAGAAAUGUAAUUGACGAGGAGGAGGUUUAUCGAAUUUUCGGCGGAUGCCUCCAAA [A12U G29A]: 0.00565 ± 0.004 s⁻¹; AUAAAAUCGUCAGAACUACAGAAAUGUAGUUGACAAGGAGGAGGUUUAUCGAAUUUUCGGCGGAUGCGUCCAAA [G7U C10U G35A C68G]: 0.000129 ± 9.3e-05 s⁻¹; AUAAAAGCGCCAAAGCUACAGAAAUGUAGUUGACGAGGAGGAGGUUUAUCGAAUUUUCGGCGGAUGCCUCCAAA [G13A A15G]: 0.000875 ± 0.00018 s⁻¹. As for AUAAAAGCGCCAAACCUACAGAAAUGUAGUUGACGAGGAGGAGGUUUAUCGAAUUUUCGGCGGAUGCCUCCAAA [G13A A15C], the kcat worked out at 0.000242 ± 3.2e-05 s⁻¹. In the case of AUAAAAGCGCCCGAACUACAGAAAUGUAGUUGACGAUGAGGAGGUUUAUCGAAUUUUCGGCGGAUUCCUCCAAA [A12C G37U G66U], the kcat amounted to 1.03e-05 ± 6.6e-06 s⁻¹. With AUAAAAGCGCCAAAACUACAGAAAUGUAGUUGACGAGGAGGGGGUUUAUCGAAUUUUCGGCGGAUGCCUUAAAA [G13A A42G C70U C71A], the kcat amounted to 1.41e-05 ± 7.7e-06 s⁻¹. For AUAAAAGCGGCACAACUACAGAAAUGUAGUUGACGAGGAGGAGGUUUAUCGAAUUUUCGGCGGAUGCCUCCAAA [C10G G13C], the kcat was 1.15e-05 ± 1e-05 s⁻¹. Still for that read-out and setting: next, AUAAAAGCUCCAGAACUACAGAAAUGUAGUUGACGAGGAGGAGCUUUAUCGAAUUUUCGGCGGAUGCCUCCAAA [G9U G44C]: less than 1e-05 s⁻¹; AUAAAAGCGCGAGAACUACAGAAAUGUAGUUGACGAGGAGGAGGUGUAUCGAAUUUUGGGCGGAUGUCUCCAAA [C11G U46G C58G C67U]: 0.00034 ± 0.00027 s⁻¹. The same measure, in the same setting: next, AUAAAAGCGCCCGAACUACAGAAAUGUAGUUGACGAGGAGGAGGUUUAUCGAAUUCUCGGCGGAUGCCUCCAAA [A12C U56C]: 0.00595 ± 0.0046 s⁻¹; AUAAAAGCGCGAGAACUACAGAAAUGUAGUUGACGAGGAGGAGGUUUAUCGAAUUUUCGGCGGAUGCCUACAAA [C11G C70A]: 2.77e-05 ± 1.9e-05 s⁻¹; AUAAAGGCGCCAGACCUACAGAAAUGUAGUUGACGAGGAGGAGGUUUAUCGAGUUUUCGGCGGAUGCCUCCAAA [A6G A15C A53G]: 3.4e-05 ± 1.8e-05 s⁻¹. The same measure, in the same setting: with AUAAAAGCGCCCGGACUACAGAAAUGUAGUUGACGAGGAGGAGGUUUAUCGAAUUUUCGGCGGAUGCCUCCAAA [A12C A14G] the figure was 0.0399 ± 0.022 s⁻¹; with AUAAAAGCGACAGAACUACAGAAAUGUAGUUGACGAGGAGGAGGUUUAUCGAAUUUUCGGCGUAUGCCUCCAAA [C10A G63U], less than 1e-05 s⁻¹.

With AUAAAAGCGCUAGAACUACAGAAAUGUAGUUGACGAGAAGGAGGUUUAUCGAAUUUUCGGCGGAUGGCUCCAAA [C11U G38A C67G], the kcat came out at 3.91e-05 ± 2.1e-05 s⁻¹.

Turning to AUAAAAGCGCCCGAAGUACAGAAAUGUAGUUGACGAGGAGGAGGUUUAUCGAAUUUUCGGCGGAUGCCUCCAAA [A12C C16G], the kcat was 0.0065 ± 0.0038 s⁻¹. Still for that read-out and setting: next, AUAAAUGCGCCAGAACUACAGAAAUGUAGUUGACGAGGAGGAGGUUUAUCCAAUUUUCGGCGGAUGCCGCCAAA [A6U G51C U69G]: 3.25e-05 ± 1.8e-05 s⁻¹.

In the next data set the parent is B1. Kind of data set: self-cleavage kobs at 640 uM GlcN6P; higher = faster cleavage; RNA array. The note with it: with glucosamine-6-phosphate. An outline of the steps: as §1
Take AUAAAAGCGACAGAACUACAGAAAUGUAGUUGACGAGGAGGAGGUUAAUCGAAUUUUCGGCGGAUGCCUACAAA [C10A U47A C70A]: the “self-cleavage kobs at 640 uM GlcN6P” value is 3.8e-05 ± 3.3e-05 s⁻¹. On to AUAAAAUCGUCAGAACUACAGAAAUGUAGUUGACAAGGAGGAGGUUUAUCGAAUUUUCGGCGGAUGCGUCCAAA [G7U C10U G35A C68G], for which the “self-cleavage kobs at 640 uM GlcN6P” value stood at 0.000937 ± 0.00048 s⁻¹. Still for that read-out and setting: with AUAAAUGCGCCAGAACUACAGAAAUGUAGUUGACGAGGAGGAGGUUUAUCCAAUUUUCGGCGGAUGCCGCCAAA [A6U G51C U69G] the figure was 5.61e-05 ± 3e-05 s⁻¹.

In a further data set the parent is B1. The data set can be described thus: self-cleavage kobs at 10000 uM GlcN6P; higher = faster cleavage; RNA array. Particulars: with glucosamine-6-phosphate. An outline of the steps:
as §1
For the variant AUAAAAGCGACAGAACUACAGAAAUGUAGUUGACGAGGAGGAGGUUAAUCGAAUUUUCGGCGGAUGCCUACAAA [C10A U47A C70A], the “self-cleavage kobs at 10000 uM GlcN6P” value amounted to 2.58e-05 ± 2.3e-05 s⁻¹.

With AUAAAGGCGCCAGACCUACAGAAAUGUAGUUGACGAGGAGGAGGUUUAUCGAGUUUUCGGCGGAUGCCUCCAAA [A6G A15C A53G], the “self-cleavage kobs at 10000 uM GlcN6P” value was found to be 1.9e-05 ± 1.6e-05 s⁻¹.

In a further data set the parent is B1. The data set can be described thus: KM; higher = weaker cofactor use; RNA array. Particulars: with glucosamine-6-phosphate. The essentials: as §1
The term KM denotes the concentration of substrate that gives half-maximal velocity. In the case of AUAAAAGCGUCAGAACUACAGAAAUGUAGUUGACGAGGAGGAGGUUUAUCGAAUUUUCGGCGGAUGCCUUCAAA [C10U C70U], the KM was 0.777 ± 0.24 mM. Same read-out and setting: next, AUAAAAGCGCCAAAGCUACAGAAAUGUAGUUGACGAGGAGGAGGUUUAUCGAAUUUUCGGCGGAUGCCUCCAAA [G13A A15G]: 1.84 ± 0.67 mM; AUAAAAGCGCCAAACCUACAGAAAUGUAGUUGACGAGGAGGAGGUUUAUCGAAUUUUCGGCGGAUGCCUCCAAA [G13A A15C]: 2.68 ± 0.76 mM. Same read-out and setting: with AUAAAAGCGCCCGAACUACAGAAAUGUAGUUGACGAGGAGGAGGUUUAUCGAAUUCUCGGCGGAUGCCUCCAAA [A12C U56C] the figure was 11.5 ± 10 mM. Same read-out and setting: with AUAAAAGCGCCCGGACUACAGAAAUGUAGUUGACGAGGAGGAGGUUUAUCGAAUUUUCGGCGGAUGCCUCCAAA [A12C A14G] the figure was 3.77 ± 2.6 mM; with AUAAAAGCGCCCGAAGUACAGAAAUGUAGUUGACGAGGAGGAGGUUUAUCGAAUUUUCGGCGGAUGCCUCCAAA [A12C C16G], 5.06 ± 3.7 mM.

A further data set covers variants of B1. The data set can be described thus: self-cleavage kobs at 40 uM GlcN6P; higher = faster cleavage; RNA array. Particulars: with glucosamine-6-phosphate. The essentials:
as §1
For AUAAAAUCGUCAGAACUACAGAAAUGUAGUUGACAAGGAGGAGGUUUAUCGAAUUUUCGGCGGAUGCGUCCAAA [G7U C10U G35A C68G], the “self-cleavage kobs at 40 uM GlcN6P” value came out at 5.39e-05 ± 3.1e-05 s⁻¹. Same read-out and setting: next, AUAAAAGCGCCCGAACUACAGAAAUGUAGUUGACGAGGAGGAGGUUUAUCGAAUUCUCGGCGGAUGCCUCCAAA [A12C U56C]: 2.87e-05 ± 1.6e-05 s⁻¹.

In a further data set the parent is B1. Kind of data set: self-cleavage kobs at 160 uM GlcN6P; higher = faster cleavage; RNA array. Particulars: with glucosamine-6-phosphate. An outline of the steps:
as §1
With AUAAAAGCGCGAGAACUACAGAAAUGUAGUUGACGAGGAGGAGGUUUAUCGAAUUUUCGGCGGAUGCCUACAAA [C11G C70A], the “self-cleavage kobs at 160 uM GlcN6P” value was determined as 0.000503 ± 0.00028 s⁻¹.

In another data set the parent is B1. The data set can be described thus: self-cleavage kobs at 2500 uM GlcN6P; higher = faster cleavage; RNA array. The note with it: with glucosamine-6-phosphate. An outline of the steps: as §1
AUAAAAGCGCGAGAACUACAGAAAUGUAGUUGACGAGGAGGAGGUUUAUCGAAUUUUCGGCGGAUGCCUACAAA [C11G C70A]: the “self-cleavage kobs at 2500 uM GlcN6P” value is 0.000256 ± 0.00014 s⁻¹.
